The source of these data is paper PMC7462905.

Results are given in words; binding and its absence hold for the method and conditions named.

The target of this experiment is T1, ligand-binding region (BR) domain of the pneumococcal serine-rich repeat protein PsrP, residues 187-385 (Streptococcus pneumoniae), A0A0H2.
T1 chain: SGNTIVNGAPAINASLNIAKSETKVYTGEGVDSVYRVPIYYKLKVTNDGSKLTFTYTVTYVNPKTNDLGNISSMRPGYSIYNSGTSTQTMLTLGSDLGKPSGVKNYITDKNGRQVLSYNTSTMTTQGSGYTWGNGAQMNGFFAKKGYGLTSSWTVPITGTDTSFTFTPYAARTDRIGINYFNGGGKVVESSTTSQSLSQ
Nature of the experiment: NMR 15N relaxation (T1, T2, NOE; rotational correlation time); protein at least 0.7 mM in 50 mM Na-phosphate pH 5.0, 100 mM NaCl, 1 mM NaN3, 10% D2O, 298 K, 14.1 T; correlation time 13 ns compared with that expected for a 20 kDa protein; both purified. The note with it: remark: other sources report otherwise.

B1: ligand-binding region (BR) domain of the pneumococcal serine-rich repeat protein PsrP, residues 187-385, A0A0H2URK1 187-385 (domain or fragment)
chain: SGNTIVNGAPAINASLNIAKSETKVYTGEGVDSVYRVPIYYKLKVTNDGSKLTFTYTVTYVNPKTNDLGNISSMRPGYSIYNSGTSTQTMLTLGSDLGKPSGVKNYITDKNGRQVLSYNTSTMTTQGSGYTWGNGAQMNGFFAKKGYGLTSSWTVPITGTDTSFTFTPYAARTDRIGINYFNGGGKVVESSTTSQSLSQ
B1: the binding entry is “no binding (tested: at least 0.7 mM)”.
